In paper PMC7819943, “Rice protein-binding microarrays: a tool to detect cis-acting elements near promoter regions in rice”:
The list shows a part of the results.

By UniProt entry, the sequences of proteins in these tests, tags left out.
UniProt Q0JBA9, entry or part of it: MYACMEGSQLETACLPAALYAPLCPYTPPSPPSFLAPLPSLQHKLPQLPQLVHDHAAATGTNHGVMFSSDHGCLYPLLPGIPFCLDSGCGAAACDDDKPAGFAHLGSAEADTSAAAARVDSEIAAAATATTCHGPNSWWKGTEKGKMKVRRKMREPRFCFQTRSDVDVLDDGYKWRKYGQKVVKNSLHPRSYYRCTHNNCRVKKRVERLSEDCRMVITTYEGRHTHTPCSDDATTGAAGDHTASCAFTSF

These sequences were tested against OsWRKY34 (Oryza sativa, UniProt Q0JBA9 1-250) (assay: protein-binding microarray (RPBM); PBS, 2% BSA, 51.3 ng/ul salmon testes DNA, 50 uM zinc acetate, 200 nM TF, 25 C, 1 h; high values mean tight binding). Conditions: protein: recombinant; tags: N-terminal polyhistidine and DsRed monomer fusion (pET32a); label: CyDye5-dUTP incorporated in the synthesized complementary strand; 3' TTTTT single-stranded linker to array surface; dsDNA, one strand shown.
In short: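 An Axon 4000B scanner gave the binding signal as per-feature fluorescence intensity in arbitrary units. This followed washing of a custom Agilent array that had been incubated for 1 h at 25 °C with 200 nM protein in PBS, 2% BSA, salmon testes DNA and 50 µM zinc acetate. The proteins were transcription factors fused at the N-terminus to polyhistidine and DsRed, expressed in E. coli BL21-CodonPlus and purified on Ni–NTA.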

Sequence | binding signal
GGATAACTTCGCCGTTAAGTCAAACTCCACTCTTCTTATCCGGAGTCACCTAGTGCAG | 8620 fluorescence intensity (a.u.)
AGTTTCATGCCGATTTTGGTTTTTGGAGTTCGGTCTTTCTCGGAGTCACCTAGTGCAG | 15000 fluorescence intensity (a.u.)
AGACGAGCCCAACCCCTTTTGCTCCTCTCGCCGTTTTGGTCGGAGTCACCTAGTGCAG | 8520 fluorescence intensity (a.u.)
CTGGGGACGGTGTGGGTGGTGGTGGTAGTAGTAGTTCTCGCGGAGTCACCTAGTGCAG | 13800 fluorescence intensity (a.u.)
TTTATCTACGTGTTCATGTACTGCTACAATCGCCATAATTCGGAGTCACCTAGTGCAG | 9020 fluorescence intensity (a.u.)
ATAAACATTGACTCGCCGGAGTAGTTTTGAAACGTTTGACCGGAGTCACCTAGTGCAG | 9180 fluorescence intensity (a.u.)
CGATTTTTCCCAAAGGGCGGCGGGCGACTAATTTTGTAAACGGAGTCACCTAGTGCAG | 9420 fluorescence intensity (a.u.)
CGACGCTTTCTTCAGTGGATCTCATACTCTTTGCATTCTACGGAGTCACCTAGTGCAG | 8490 fluorescence intensity (a.u.)
AGTTGCCTCCAGTTCCTGAAGTTACTTTGGTCTTATTATGCGGAGTCACCTAGTGCAG | 9320 fluorescence intensity (a.u.)
ACTTTACCGTTGCGGGTGCTCTTGCGCGGCCCTCGAATTCCGGAGTCACCTAGTGCAG | 8770 fluorescence intensity (a.u.)
CGCTGTCGATCGCCGTCTCCGGCTGGCTCACCTCCGCCAACGGAGTCACCTAGTGCAG | 9500 fluorescence intensity (a.u.)
AGTGGTGATCGCCGCGGTTGGGTTTCTTGGATTGGGCTGTCGGAGTCACCTAGTGCAG | 8720 fluorescence intensity (a.u.)
TTTAAAAAAGTCAACGGCATAAAACATTTAGGACGATTGTCGGAGTCACCTAGTGCAG | 9390 fluorescence intensity (a.u.)
AGGGAAGGGATGGTGAGGACAGGCACATGATGGGAAAAATCGGAGTCACCTAGTGCAG | 9380 fluorescence intensity (a.u.)
CCTAGCTCCATCTTCGTCCTCGTCCACACAAAATGTTTTCCGGAGTCACCTAGTGCAG | 9470 fluorescence intensity (a.u.)
TATGGATTTAATCATGGTTTCTTTGTCTTTGTTTCTTGTTCGGAGTCACCTAGTGCAG | 8210 fluorescence intensity (a.u.)
CTTGCCTGTACTGAAGGTTAAAATTTTCTCCTCTTTTTTGCGGAGTCACCTAGTGCAG | 10700 fluorescence intensity (a.u.)
TCCTTGGGTATAATCAATTCCCCTTTTCCACTCGTAATTGCGGAGTCACCTAGTGCAG | 8280 fluorescence intensity (a.u.)
TAAATTCCACTCCAAAATTTTTCACCCTGTCACATCAGATCGGAGTCACCTAGTGCAG | 8040 fluorescence intensity (a.u.)
GTTTGTTTTGACCCAGCCACATCCCACTCCCTGAAAAAAACGGAGTCACCTAGTGCAG | 8130 fluorescence intensity (a.u.)
TTCATTAGTCAGGATATATCATTTGTACAAACAACTTTGTCGGAGTCACCTAGTGCAG | 8580 fluorescence intensity (a.u.)
AATTAGCTGTTGGACACCCGCGGGATTATTTTATCATATCCGGAGTCACCTAGTGCAG | 9050 fluorescence intensity (a.u.)
TAGCCGCTAATCCATGTTTACCTGTCTAAATTTGTTCATCCGGAGTCACCTAGTGCAG | 9030 fluorescence intensity (a.u.)
GTTAGTGCCTAGCCCAGTTTGACCGAGTAAAATGAGACATCGGAGTCACCTAGTGCAG | 8820 fluorescence intensity (a.u.)
GCAGTATGTGCTAATGTGCATCAGTTTTTCTTCTACTATACGGAGTCACCTAGTGCAG | 8740 fluorescence intensity (a.u.)
TTTGTTCTCCTTTTTTTTTTGGTGATTTTGTTGTTTCTTGCGGAGTCACCTAGTGCAG | 9980 fluorescence intensity (a.u.)
TGTCACATTCGTCTCCGGTCCGTACGTTGCTGTATTTTAGCGGAGTCACCTAGTGCAG | 17100 fluorescence intensity (a.u.)

Sequence | binding signal
GTTTTGCATGTCCACTTTTAATCTTATCTTCAGAAGATTGCGGAGTCACCTAGTGCAG | 10000 fluorescence intensity (a.u.)
ACTAGATCTTCGTTCCACGTGGCATTGACGTGACACTCACCGGAGTCACCTAGTGCAG | 8200 fluorescence intensity (a.u.)
TCCTACCTGTCATACACACACAGTGTCTTGAAGTCCGTGTCGGAGTCACCTAGTGCAG | 9820 fluorescence intensity (a.u.)
TAGCTAGCAATCTCCTGTTGCAACATGTGTCGTTCAATTGCGGAGTCACCTAGTGCAG | 8690 fluorescence intensity (a.u.)
CCAGCCATCCGCGCAACGAACCTAAGCCGTCCGATTCTCCCGGAGTCACCTAGTGCAG | 8670 fluorescence intensity (a.u.)
ATTTTGAACAATACCATTTTCAAACACGTTCATTTAGTTTCGGAGTCACCTAGTGCAG | 9800 fluorescence intensity (a.u.)
AGAACACTGTGTCCCTTACGTGGCGACCTAATTTACCGTCCGGAGTCACCTAGTGCAG | 8500 fluorescence intensity (a.u.)
AGCCACCATCACTCCACCTGCTGAAAGCACTGCCCGAGTACGGAGTCACCTAGTGCAG | 9750 fluorescence intensity (a.u.)
CTAAAGTTAACGCTCGTTCTGGTATTTACGGCTATTTTTTCGGAGTCACCTAGTGCAG | 9080 fluorescence intensity (a.u.)
TCGCGTGTATCACCTTTTCCCCATTTTTTTTAATTCCTATCGGAGTCACCTAGTGCAG | 9950 fluorescence intensity (a.u.)
TGACCCGCCTCGCGCTCGCCTGCCACCACCGCCACCGCCACGGAGTCACCTAGTGCAG | 8400 fluorescence intensity (a.u.)
GAAAATCCTCGATGCATTCAATCGGTTCCTCGGGGAAGAACGGAGTCACCTAGTGCAG | 8560 fluorescence intensity (a.u.)
ACGCGCTCGCGCTGCTCCTCCTTCTCGCAGCAGATATACCCGGAGTCACCTAGTGCAG | 8410 fluorescence intensity (a.u.)
ACATCTCTGTCTGTCTCCGCTTTAAAGCTGTCACCTTTTCCGGAGTCACCTAGTGCAG | 9240 fluorescence intensity (a.u.)
ACGGCCAGTGACCCAGTTGTACATATACCCAGCGCACACTCGGAGTCACCTAGTGCAG | 8700 fluorescence intensity (a.u.)
TCAATCGGCTGCACTTAATTTACTGCAGTTCGTCCTATTCCGGAGTCACCTAGTGCAG | 9160 fluorescence intensity (a.u.)
CCGCCAGCGCACCACGCACCCCGCGGCCCGCGCTCGTCGCCGGAGTCACCTAGTGCAG | 8550 fluorescence intensity (a.u.)
CGTCGCCGAGCCGCCTCCGCCTCACCGTGCCGACCACCACCGGAGTCACCTAGTGCAG | 8940 fluorescence intensity (a.u.)
CCACAGTCTACAGCATCTCTGCTTTGCAGCTGCAGCTTAACGGAGTCACCTAGTGCAG | 8780 fluorescence intensity (a.u.)
CTTTTCTCCACGTCGCTGCAGCCGTGTCCTCATCGACCTTCGGAGTCACCTAGTGCAG | 8700 ± 537 fluorescence intensity (a.u.)
GCACCACTTTTCACCTTTTCTTCTCCTCCTCCATTTCCATCGGAGTCACCTAGTGCAG | 8260 fluorescence intensity (a.u.)
CCCCGGCTTTGACTCACAGACTCCACGTCTCCACCCCGAACGGAGTCACCTAGTGCAG | 9870 fluorescence intensity (a.u.)
GTACCCATCAATAGTAAGTCACCCACATTTGTACTTTGTTCGGAGTCACCTAGTGCAG | 8960 fluorescence intensity (a.u.)
AGGTGGTGGGCTGTGGGTACGGGCGGCGGCGGCGGCGATGCGGAGTCACCTAGTGCAG | 8960 fluorescence intensity (a.u.)
GTCCAAATTATCTCTCTCATTTTCTTCTCTCATTAATCCACGGAGTCACCTAGTGCAG | 10100 fluorescence intensity (a.u.)
GTACGCCCGCATTAGCTATGCGCTCATCTACGACATCCAGCGGAGTCACCTAGTGCAG | 9000 fluorescence intensity (a.u.)
TCTTGTGTACGTTGTGTGTTGTCATTGTGTGTCTGTCTTACGGAGTCACCTAGTGCAG | 17200 fluorescence intensity (a.u.)

Part of the list above in a different format.
Sequence	binding signal
TCAATCGGCTGCACTTAATTTACTGCAGTTCGTCCTATTCCGGAGTCACCTAGTGCAG	9160 fluorescence intensity (a.u.)
CCGCCAGCGCACCACGCACCCCGCGGCCCGCGCTCGTCGCCGGAGTCACCTAGTGCAG	8550 fluorescence intensity (a.u.)
CGTCGCCGAGCCGCCTCCGCCTCACCGTGCCGACCACCACCGGAGTCACCTAGTGCAG	8940 fluorescence intensity (a.u.)
